No constants are given. Whether binding was seen depends on the method and setting. Binding seen in cells or lysates may run through a third protein. Some binding calls cover weakened binding; strength is not graded here.
How the values were obtained:
[1] = target: epidermal growth factor receptor (EGFR), human, endogenous in THP1 cells (human) (UniProt P00533); assay: co-immunoprecipitation from THP1 lysates (FIG. 12)
[2] = target: epidermal growth factor receptor (EGFR), human, endogenous in THP1 cells (human) (UniProt P00533); assay: co-immunoprecipitation from THP1 lysates
[3] = target: epidermal growth factor receptor (EGFR), mouse, endogenous in iBMDMs (mouse) (UniProt Q01279); assay: co-immunoprecipitation from iBMDM lysates (FIG. 9 panel D)
[4] = target: epidermal growth factor receptor (EGFR), mouse, endogenous in iBMDMs (mouse) (UniProt Q01279); assay: co-immunoprecipitation from iBMDM lysates

Protein sequences, listed by entry. Tags and fused reporters are not part of them. Residues count along the entry.
UniProt Q9UM73, residues 19-1620: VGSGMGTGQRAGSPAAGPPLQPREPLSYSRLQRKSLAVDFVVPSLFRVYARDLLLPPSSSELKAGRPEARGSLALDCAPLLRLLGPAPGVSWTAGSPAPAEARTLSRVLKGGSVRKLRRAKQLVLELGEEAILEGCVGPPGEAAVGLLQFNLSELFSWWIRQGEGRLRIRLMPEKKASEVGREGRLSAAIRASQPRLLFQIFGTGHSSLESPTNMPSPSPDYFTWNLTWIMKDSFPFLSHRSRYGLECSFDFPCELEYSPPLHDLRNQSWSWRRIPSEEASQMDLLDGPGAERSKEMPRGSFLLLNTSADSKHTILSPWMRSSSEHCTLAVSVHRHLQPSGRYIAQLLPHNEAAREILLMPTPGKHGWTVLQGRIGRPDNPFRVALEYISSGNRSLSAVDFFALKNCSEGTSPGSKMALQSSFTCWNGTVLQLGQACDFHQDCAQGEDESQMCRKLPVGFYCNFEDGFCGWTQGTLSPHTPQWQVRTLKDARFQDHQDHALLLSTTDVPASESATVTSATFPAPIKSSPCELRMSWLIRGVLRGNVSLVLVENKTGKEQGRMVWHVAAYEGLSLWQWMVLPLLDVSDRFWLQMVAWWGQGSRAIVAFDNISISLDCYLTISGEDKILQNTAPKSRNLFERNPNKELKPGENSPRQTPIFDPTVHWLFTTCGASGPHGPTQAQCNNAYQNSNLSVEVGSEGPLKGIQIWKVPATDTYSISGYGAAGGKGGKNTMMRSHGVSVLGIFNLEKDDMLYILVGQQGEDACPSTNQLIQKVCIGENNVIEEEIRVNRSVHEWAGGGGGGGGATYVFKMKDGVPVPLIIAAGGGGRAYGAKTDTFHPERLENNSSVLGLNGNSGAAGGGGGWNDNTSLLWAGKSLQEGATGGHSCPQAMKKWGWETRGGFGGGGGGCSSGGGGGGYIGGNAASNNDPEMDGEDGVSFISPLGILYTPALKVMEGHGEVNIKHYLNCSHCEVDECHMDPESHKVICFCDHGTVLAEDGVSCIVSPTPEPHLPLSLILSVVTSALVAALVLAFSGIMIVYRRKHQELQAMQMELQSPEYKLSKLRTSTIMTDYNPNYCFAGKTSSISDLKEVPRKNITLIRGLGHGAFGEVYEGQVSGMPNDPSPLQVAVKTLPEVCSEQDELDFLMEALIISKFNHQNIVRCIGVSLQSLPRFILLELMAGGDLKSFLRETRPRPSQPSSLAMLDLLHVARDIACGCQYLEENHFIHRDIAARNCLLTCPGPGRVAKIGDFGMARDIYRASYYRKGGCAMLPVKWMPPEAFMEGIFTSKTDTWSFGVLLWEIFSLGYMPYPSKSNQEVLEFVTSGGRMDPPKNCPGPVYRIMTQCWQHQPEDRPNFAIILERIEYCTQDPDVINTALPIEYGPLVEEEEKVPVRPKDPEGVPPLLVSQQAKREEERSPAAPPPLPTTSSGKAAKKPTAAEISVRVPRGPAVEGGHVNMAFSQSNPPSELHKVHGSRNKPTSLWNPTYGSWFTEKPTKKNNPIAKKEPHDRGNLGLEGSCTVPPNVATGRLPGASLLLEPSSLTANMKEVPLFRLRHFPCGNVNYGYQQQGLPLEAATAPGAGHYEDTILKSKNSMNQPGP
UniProt P97793, residues 19-1621: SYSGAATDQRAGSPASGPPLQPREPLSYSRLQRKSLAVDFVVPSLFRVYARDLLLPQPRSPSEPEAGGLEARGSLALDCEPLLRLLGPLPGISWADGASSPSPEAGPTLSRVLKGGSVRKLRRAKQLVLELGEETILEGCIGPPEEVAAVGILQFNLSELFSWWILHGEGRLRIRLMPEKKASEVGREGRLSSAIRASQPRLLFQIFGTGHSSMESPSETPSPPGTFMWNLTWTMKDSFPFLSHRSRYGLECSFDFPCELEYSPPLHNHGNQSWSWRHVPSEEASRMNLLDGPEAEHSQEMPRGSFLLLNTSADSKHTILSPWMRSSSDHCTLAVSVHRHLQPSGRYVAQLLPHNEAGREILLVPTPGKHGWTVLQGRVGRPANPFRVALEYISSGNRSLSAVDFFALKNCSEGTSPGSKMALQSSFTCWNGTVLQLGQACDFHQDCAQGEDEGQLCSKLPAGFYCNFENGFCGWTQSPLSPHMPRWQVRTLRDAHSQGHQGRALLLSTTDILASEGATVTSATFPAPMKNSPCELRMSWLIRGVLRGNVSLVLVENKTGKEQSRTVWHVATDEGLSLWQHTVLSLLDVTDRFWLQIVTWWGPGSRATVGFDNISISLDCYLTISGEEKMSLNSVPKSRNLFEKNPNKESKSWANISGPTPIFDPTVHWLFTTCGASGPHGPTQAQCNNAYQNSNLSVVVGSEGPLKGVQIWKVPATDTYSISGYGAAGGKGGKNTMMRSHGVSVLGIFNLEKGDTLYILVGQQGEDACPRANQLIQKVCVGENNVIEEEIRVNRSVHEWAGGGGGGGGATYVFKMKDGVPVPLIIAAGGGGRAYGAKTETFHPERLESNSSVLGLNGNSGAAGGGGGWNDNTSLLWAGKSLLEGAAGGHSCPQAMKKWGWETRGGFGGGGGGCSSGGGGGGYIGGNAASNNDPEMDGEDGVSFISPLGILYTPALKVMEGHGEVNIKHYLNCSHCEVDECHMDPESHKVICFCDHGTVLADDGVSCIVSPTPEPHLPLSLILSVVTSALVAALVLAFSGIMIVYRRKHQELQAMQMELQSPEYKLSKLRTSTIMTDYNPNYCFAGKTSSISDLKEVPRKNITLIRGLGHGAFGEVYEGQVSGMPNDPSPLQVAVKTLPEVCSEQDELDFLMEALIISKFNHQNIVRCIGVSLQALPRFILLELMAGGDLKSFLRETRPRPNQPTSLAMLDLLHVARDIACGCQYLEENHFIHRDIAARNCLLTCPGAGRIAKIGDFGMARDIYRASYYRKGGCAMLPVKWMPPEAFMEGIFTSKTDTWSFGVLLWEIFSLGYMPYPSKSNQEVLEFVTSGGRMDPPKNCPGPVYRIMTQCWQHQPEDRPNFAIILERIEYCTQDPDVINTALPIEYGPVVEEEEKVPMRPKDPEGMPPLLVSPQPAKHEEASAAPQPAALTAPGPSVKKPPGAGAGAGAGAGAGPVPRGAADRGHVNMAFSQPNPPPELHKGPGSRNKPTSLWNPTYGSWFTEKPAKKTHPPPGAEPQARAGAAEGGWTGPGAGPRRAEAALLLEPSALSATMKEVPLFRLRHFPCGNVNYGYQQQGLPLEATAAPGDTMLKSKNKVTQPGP

Row | Substance | binding [1] | binding [2] | binding [3] | binding [4]
1 | anaplastic lymphoma kinase (ALK), human, endogenous in THP1 cells (from UniProt Q9UM73 19-1620) (receptor) | binds | binds |  | 
2 | anaplastic lymphoma kinase (ALK), mouse, endogenous in iBMDMs and RAW264.7 cells (from UniProt P97793 19-1621) (receptor) |  |  | binds | binds
